Data published in patent US11491109B2, “Pharmaceutical compositions for basic or neutral, low molecular weight compounds” (Hoffmann-La Roche Inc., priority 2017, dated 2022).

Assay: Equilibrium solubility in EPO-solutions, 96-well SORESOS assay
Conditions: 48 h, room temperature
Procedure: Polymer solutions were prepared by dissolving EPO (0.1%, 0.5%, 1%, 2%, 3%, 4%, 5% (w/w)) in deionized water and adjusting all solutions to pH 6.0 by hydrochloric acid and sodium hydroxide at 25° C. Solutions were checked carefully for absence of particles.
Solubility of compounds in EPO-solutions was determined by using a 96-well assay that was introduced to measure equilibrium solubility in parallel to a solid state analysis of the residual solid (SORESOS)^21 as described before.^22 In brief, APIs were dispensed using the powder-picking-method^23 in a 96-well flat bottom plate (Corning Inc., Durham, USA). Mixtures were agitated by head-over-head rotation for 48 h at room temperature after addition of stir bars and polymer solutions (150 μl). […] Samples were analyzed directly in the 96-well filter plate with an exposure time of 5 min per well.
Solubility of compounds in EPO-solutions was determined by using a 96-well assay that was introduced to measure equilibrium solubility in parallel to a solid state analysis of the residual solid (SORESOS)^21 as described before.^22 In brief, APIs were dispensed using the powder-picking-method^23 in a 96-well flat bottom plate (Corning Inc., Durham, USA). […] Samples were analyzed directly in the 96-well filter plate with an exposure time of 5 min per well.

Question: For `C(=C\c1ccccc1)/CN1CCN(C(c2ccccc2)c2ccccc2)CC1` [CNZ, Cinnarizine], which “EPO concentration at which solubility reached a plateau” value is on record?
Answer: Its value is 2 % EPO (w/w).
